From patent publication US20170369542A1 (Pieris, published 2017) come the findings set out here.

Results are given in words; binding and its absence hold for the method and conditions named. Some results given as binding are weak or reduced against the parent protein; the word gives no strength.

This experiment deals with T1, synthetic non-modified human Hepcidin-25 (human, not fully specified).
T1 peptide: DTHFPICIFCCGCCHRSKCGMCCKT
The experiment in a line: competition ELISA, free human hepcidin against captured biotinylated hepcidin.

B1: lipocalin mutein of SEQ ID NO: 1, linked to albumine-binding domain (ABD) (SEQ ID NO: 15) (designed binder)
chain: QDSTSDLIPAPPLSKVPLQQNFQDNQFHGKWYVVGLAGNEVLREDKDPMKMWATIYELEEDKSYNVTIVMFLAKKCEYLFQTFVPGSQPGEFTLGDIKSSPGRTSGLVRVVSTNYNQHAMVFFKVVWQNREVFWITLYGRTKELTSELKENFIRFSKSLGLPENHIVFPVPIDQCIDGSAGAVDANSLAEAKVLANRELDKYGVSDYYKNLINNAKTVEGVKALIDEILAALPSAWSHPQFEK
notes: also called ABD-fusion protein
B1: the binding result is “binds”.
